# Source: PubChem BioAssay AID540276 (National Center for Advancing Translational Sciences (NCATS), 2011)
# About 5,400 (1.8%) of roughly 300,000 compounds were called active. Inconclusive results, whose numbers are uncertain, are shown with a selection of clear calls. Calls come from the whole dose curve; tested in HEK293 cells. Potencies beside an inconclusive call are fits to weak or partial responses and may not hold up.
# Test: qHTS for inhibitors of binding or entry into cells for Marburg Virus
# Details: Marburg virus pseudotyped entry inhibition, cell reporter; activity change, negative = inhibition: at 37.8 µM (top of the series) unless noted
# % is set by controls: 0 for no effect and ±100 for the full control effect; potency is the fitted concentration of half-maximal effect.
Structure (SMILES),Potency,"activity change, negative = inhibition"
Fc1ccc(C(Nc2ccccc2Cl)c2nnc(-c3ccccc3Cl)o2)cc1 (stereo not given),"inconclusive: 7.08 µM [inhibitor, partial curve, poor fit]",
C(=N\N1CCOCC1)/c1cn(-c2ccccc2)nc1-c1ccccc1,"inconclusive: 35.5 µM [activator, single point]",
Cc1cccn2c(=O)c3cc(C(=O)NCc4cccnc4)c(=N)n(CC4CCCO4)c3nc12 (stereo not given),,inactive: -20.4% [at 46.1 µM]
Cc1cccc(NC(=O)C2C3C=CC(O3)C2C(=O)O)c1C (stereo not given),,inactive: 7.42% [at 46.1 µM]
COc1cc(C(=O)ON=C2C(C)=CC(=O)C=C2C)cc(OC)c1OC,"inconclusive: 29.1 µM [activator, single point]",
O=C(c1ccccc1-c1ccccc1)N1CCN(c2ccccn2)CC1,"inconclusive: 1.12 µM [inhibitor, full curve, poor fit]",
CCOC(=O)OC[C@H]1O[C@H](C#Cc2ccc(C(C)(C)C)cc2)C=C[C@H]1OC(=O)OCC,"inconclusive: 6.68 µM [inhibitor, single point]",
COc1ccc(/C=C/CN2CCN(CCc3ccccc3)C(CCO)C2)cc1 (stereo not given),"inconclusive: 20 µM [inhibitor, partial curve, poor fit]",
N=c1n(CCO)c2ccccc2n1Cc1ccccc1,"inconclusive: 1 µM [activator, partial curve, poor fit]",
O=C(/C=C\c1ccc(-c2ccccc2)o1)c1ccccc1,"inconclusive: 2.24 µM [activator, partial curve, poor fit]",
O=C(CCSc1nc(-c2ccco2)cc(C(F)(F)F)n1)N1CCCc2ccccc21,"inconclusive: 12.6 µM [inhibitor, single point]",
C/C(Cc1ccccc1)=N\NC(=O)CNC(=O)c1cccc(F)c1,"inconclusive: 35.5 µM [activator, partial curve, poor fit]",
Cc1ccccc1C(=O)Nc1ccccc1NC(=O)c1ccccc1Br,,inactive: -11.8%
CCOc1cc(NC(=S)NCc2ccco2)c(OCC)cc1NC(=O)CC(C)C,"inconclusive: 0.794 µM [activator, partial curve, poor fit]",
CC(C(=O)O)c1ccc(CC2CCCC2=O)cc1 (stereo not given),"inconclusive: 6.31 µM [inhibitor, partial curve, poor fit]",
CC1CCN(c2ccc(C(=O)Nc3ccc4c(c3)OCO4)cc2[N+](=O)[O-])CC1,"inconclusive: 0.259 µM [inhibitor, full curve, poor fit]",
Cc1sc2ncn(CC(=O)N3CCN(c4ccccc4)CC3)c(=O)c2c1S(=O)(=O)N1CCN(c2ncccn2)CC1,,inactive: 13.5% [at 46.1 µM]
COc1ccccc1NS(=O)(=O)c1ccc(O)c(C(=O)OCC(=O)Nc2ccccc2F)c1,"inconclusive: 3.55 µM [activator, full curve, poor fit]",
COC(=O)c1ccc(/C=C/C(=O)c2cccc(OC)c2)cc1,"inconclusive: 11.2 µM [inhibitor, single point]",
O=C(Nc1ccc(Br)cc1)C1CCCN1S(=O)(=O)c1cccs1 (stereo not given),"inconclusive: 17.8 µM [inhibitor, single point]",
Cc1cc2c(cc3c(=O)n(CC(=O)NCCCN4CC(C)CC(C)C4)ncn32)s1 (stereo not given),"inconclusive: 3.16 µM [inhibitor, partial curve, poor fit]",
CCc1ccc(C(c2ccccc2)c2c[nH]c3ccc(C)cc23)s1 (stereo not given),"inconclusive: 5.62 µM [activator, single point]",

Structure (SMILES),Potency,"activity change, negative = inhibition"
CC1=NN(c2ccccc2)C(=O)/C1=C/c1c(O)n(-c2ccc(F)cc2)[nH]c1=O,,inactive: 0.559%
CC(C)(CCc1ccccn1)C(=O)CCCc1ccccn1,"inconclusive: 1.58 µM [inhibitor, partial curve, poor fit]",
COc1ccc(-c2nc(CN3CCN(Cc4cccc(F)c4)CC3)c(C)o2)cc1,"inconclusive: 14.1 µM [inhibitor, partial curve, poor fit]",
Cc1ccc(N=Cc2nc(-c3ccco3)oc2O)cc1,,inactive: 23.9%
COC(=O)c1ccc(NC(=O)CNc2ccccc2)cc1,,inactive: -9.39% [at 46.1 µM]
O=C(NCc1ccc2c(c1)OCO2)C1COc2ccccc2O1 (stereo not given),"inconclusive: 7.94 µM [activator, partial curve, poor fit]",
CCn1c(=O)c2cc(C(=O)N3CCN(c4cccc(OC)c4)CC3)sc2c2ccccc21,"inconclusive: 35.5 µM [inhibitor, single point]",
COc1ccccc1CNC(=O)COC(=O)Cc1ccsc1,"inconclusive: 22.4 µM [activator, single point]",
COC(=O)Cc1c(C)c2ccc(OCC(=O)c3ccc(OC)c(OC)c3)cc2oc1=O,,inactive: -2.6% [at 46.1 µM]
Cc1cc(C)cc(NC(=O)c2sc3nc4n(c(=O)c3c2C)CCC4)c1,"inconclusive: 4.47 µM [activator, single point]",
O=C(CSc1nnc2scc(-c3ccc(Cl)cc3)n12)Nc1cccc(C(F)(F)F)c1,"inconclusive: 10 µM [inhibitor, single point]",
Cn1cnnc1-c1cccc(NS(=O)(=O)c2ccc(N3CCCC3=O)cc2)c1,"inconclusive: 29.1 µM [activator, single point]",
CCOc1ccc(Nc2nc(C)c(NC(=O)c3ccc(C)cc3)c(Nc3ccc(OCC)cc3)n2)cc1,"inconclusive: 15.8 µM [inhibitor, single point]",
CN(C)/C=N/C1=C(C#N)C(c2cccs2)c2ccc3ccccc3c2O1 (stereo not given),"inconclusive: 5.62 µM [inhibitor, full curve, poor fit]",
C/C(=N\NC(=O)c1cc(-c2ccc(C)s2)nc2ccccc12)c1cccnc1,,inactive: -15.5% [at 46.1 µM]
COc1ccc(CCNC(=O)COC(=O)C23CC4CC(CC(C4)C2)C3)cc1,"inconclusive: 0.794 µM [activator, full curve, poor fit]",
COC(=O)c1sc(NC(=O)/C=C/c2ccc(C)cc2)nc1C,"inconclusive: 2.59 µM [activator, single point]",
Cc1cccc(N=Cc2c(O)n(C)c(=O)n(C)c2=O)c1,,inactive: 8.24%
CN(C)CCCn1c2c(c(SCC(=O)Nc3cccc4ccccc34)nc1=O)CCC2,"inconclusive: 15.8 µM [inhibitor, single point]",
O=C(N=C1c2ccccc2CN1c1cccc(Cl)c1)c1cccnc1,"inconclusive: 29.1 µM [activator, single point]",
NS(=O)(=O)c1ccc(N=Nc2ccc(=O)[nH]c2O)cc1,,inactive: 3.87%
CCN(c1ccccc1)S(=O)(=O)c1ccc(Cl)c(NC(=O)CN(C)C2CCN(C)CC2)c1,"inconclusive: 35.5 µM [inhibitor, single point]",

Structure (SMILES),Potency,"activity change, negative = inhibition"
N#CC(Cc1ccc(OC(F)F)cc1)c1nc2ccccc2[nH]1 (stereo not given),,inactive: -9.22%
COc1ccc(-c2csc3nc(C)nc(N4CCC(C)CC4)c23)cc1OC,"inconclusive: 22.4 µM [inhibitor, single point]",
Cc1ccc(C)c(N(CC(=O)N/N=C/c2ccc(-c3ccc([N+](=O)[O-])cc3)o2)S(=O)(=O)c2ccccc2)c1,"inconclusive: 0.146 µM [inhibitor, full curve, poor fit]",
CCOC(=O)C1=C(c2ccccc2)NC(=O)NC1c1ccc(OC)cc1 (stereo not given),,inactive: -6.59% [at 46.1 µM]
CC(C)C(=O)NN(C(=O)C(C)C)c1nc2ccccc2s1,,inactive: 12%
CCOc1ccc(N2CC(C(=O)NCc3ccccn3)CC2=O)cc1 (stereo not given),"inconclusive: 1.12 µM [inhibitor, partial curve, poor fit]",
CN(CC(=O)Nc1c(Cl)cccc1Cl)C(=O)Cc1ccsc1,,inactive: 7.34%
N#Cc1cnc(SCC(=O)N2CCCC2)nc1N,"inconclusive: 3.55 µM [inhibitor, single point]",
O=C(O)CCCCCNS(=O)(=O)c1cccc2c1C(=O)c1ccccc1C2=O,"inconclusive: 15.8 µM [inhibitor, single point]",
C=CCn1c(SCC(=O)Nc2cccnc2Cl)nnc1-c1ccccc1F,,inactive: -7%
O=C(O)c1ccc(NC(C(=O)c2ccccc2)c2ccccc2)cc1 (stereo not given),"inconclusive: 20 µM [activator, partial curve, poor fit]",
Cc1ccc(N(C(=O)c2snc(C(N)=O)c2N)C(C(=O)NCC2CCCO2)c2c[nH]c3ccccc23)cc1 (stereo not given),"inconclusive: 22.4 µM [inhibitor, partial curve, poor fit]",
CCOc1cc(C)c(Cl)cc1S(=O)(=O)NC1CC(C)(C)NC(C)(C)C1,"inconclusive: 16.4 µM [inhibitor, single point]",
N#CCSc1nc2ccccc2c(=O)n1CCC(=O)NC1CCCCC1,"inconclusive: 1.03 µM [inhibitor, full curve]",
CC(C)c1ccc(NC(=O)C2CCCN(S(=O)(=O)c3cccc4nsnc34)C2)cc1 (stereo not given),,inactive: -4.49% [at 46.1 µM]
COC(=O)c1cc(NS(=O)(=O)c2ccc(N3CCOCC3)c(N)c2)cc(C(=O)OC)c1,"inconclusive: 6.31 µM [inhibitor, single point]",
Cc1oc2cc3oc(=O)c4c(c3cc2c1C)CCC4,"inconclusive: 0.651 µM [activator, full curve]",
O=C1c2cccc([N+](=O)[O-])c2C(=O)N1c1ccccc1,"inconclusive: 35.5 µM [activator, single point]",
CCCc1nc2scc(-c3ccc(C)cc3)c2c(=O)n1N,"inconclusive: 31.6 µM [inhibitor, single point]",
C[C@@H](N)C(=O)NC[C@H]1CC[C@H](C(=O)N[C@@H](Cc2ccccc2)C(=O)O)CC1,,inactive: -1.73% [at 46.1 µM]
CCOC(=O)C(Cc1ccccc1)(Cc1ccccc1)C(C)=O,"inconclusive: 0.0891 µM [inhibitor, full curve, poor fit]",

# A draw from above in order of length of the SMILES, largest number first.
Structure (SMILES),Potency,"activity change, negative = inhibition"
Cc1ccc(C)c(N(CC(=O)N/N=C/c2ccc(-c3ccc([N+](=O)[O-])cc3)o2)S(=O)(=O)c2ccccc2)c1,"inconclusive: 0.146 µM [inhibitor, full curve, poor fit]",
Cc1ccc(N(C(=O)c2snc(C(N)=O)c2N)C(C(=O)NCC2CCCO2)c2c[nH]c3ccccc23)cc1 (stereo not given),"inconclusive: 22.4 µM [inhibitor, partial curve, poor fit]",
C[C@@H](N)C(=O)NC[C@H]1CC[C@H](C(=O)N[C@@H](Cc2ccccc2)C(=O)O)CC1,,inactive: -1.73% [at 46.1 µM]
COC(=O)c1cc(NS(=O)(=O)c2ccc(N3CCOCC3)c(N)c2)cc(C(=O)OC)c1,"inconclusive: 6.31 µM [inhibitor, single point]",
CC(C)c1ccc(NC(=O)C2CCCN(S(=O)(=O)c3cccc4nsnc34)C2)cc1 (stereo not given),,inactive: -4.49% [at 46.1 µM]
O=C(O)CCCCCNS(=O)(=O)c1cccc2c1C(=O)c1ccccc1C2=O,"inconclusive: 15.8 µM [inhibitor, single point]",
COc1ccc(-c2csc3nc(C)nc(N4CCC(C)CC4)c23)cc1OC,"inconclusive: 22.4 µM [inhibitor, single point]",
CCOC(=O)C1=C(c2ccccc2)NC(=O)NC1c1ccc(OC)cc1 (stereo not given),,inactive: -6.59% [at 46.1 µM]
O=C1c2cccc([N+](=O)[O-])c2C(=O)N1c1ccccc1,"inconclusive: 35.5 µM [activator, single point]",
CCOc1ccc(N2CC(C(=O)NCc3ccccn3)CC2=O)cc1 (stereo not given),"inconclusive: 1.12 µM [inhibitor, partial curve, poor fit]",
CN(CC(=O)Nc1c(Cl)cccc1Cl)C(=O)Cc1ccsc1,,inactive: 7.34%
CC(C)C(=O)NN(C(=O)C(C)C)c1nc2ccccc2s1,,inactive: 12%
CCCc1nc2scc(-c3ccc(C)cc3)c2c(=O)n1N,"inconclusive: 31.6 µM [inhibitor, single point]",
N#Cc1cnc(SCC(=O)N2CCCC2)nc1N,"inconclusive: 3.55 µM [inhibitor, single point]",
